Data as given in PubChem BioAssay AID743458 (Peter MacCallum Cancer Centre, 2014).
The whole screen tested about 1,800 reagents; below is a part drawn at random. Of all reagents, 732 (41%) were called active. 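Calls are per siRNA reagent; a gene was deemed confirmed only if most of its four siRNAs scored.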 The numbers tell different reagents against one gene apart.

- Screen: 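Retest earlier hits with independent siRNAs per gene for restoring vorinostat sensitivity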 (follow-up of hits)
- Cell system: human HCT116-VR colon cancer cells made resistant to vorinostat
- Reagent: single siRNA or pool against human genes, 25 nM per single siRNA
- Timing: about 72 h after transfection, including 24 h of drug
- Conditions: vorinostat, 2.5 µM final, for 24 h
- Detection: 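Cell viability by fluorescence and apoptosis by caspase 3/7 luminescence under vorinostat, background-corrected, averaged across two plate copies and given as fold change versus mock transfection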
- Reading the numbers: viability relative to mock: higher = more living cells than mock; caspase activity relative to mock: higher = more apoptosis than mock
- Call rule: 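Active means a reduced-viability or caspase-activation class, anything else inactive; classes could only be given to wells that looked healthy when left untreated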

Against ATP7B (ATPase copper transporting beta) #1, the values are viability relative to mock 0.78; caspase activity relative to mock 2.42; viability hit class no change; caspase hit class no change; inactive.
Knock-down of ATP7B (ATPase copper transporting beta) #2 gave: viability relative to mock 1.04; caspase activity relative to mock 1.26; viability hit class no change; caspase hit class no change; inactive.
Knock-down of ATP7B (ATPase copper transporting beta) #3 resulted in: viability relative to mock 1.06; caspase activity relative to mock 1.24; viability hit class no change; caspase hit class no change; inactive.
ATP7B (ATPase copper transporting beta) #4 gave viability relative to mock 0.92; caspase activity relative to mock 3.56; viability hit class no change; caspase hit class caspase activation; active.
After knock-down of COMMD2 (COMM domain containing 2) #1, the record shows viability relative to mock 0.26; caspase activity relative to mock 4.88; viability hit class reduced viability; caspase hit class caspase activation; active.
For COMMD2 (COMM domain containing 2) #2, the entry reads viability relative to mock 0.66; caspase activity relative to mock 1.64; viability hit class no change; caspase hit class no change; inactive.
Depletion of COMMD2 (COMM domain containing 2) #3 resulted in: viability relative to mock 0.86; caspase activity relative to mock 1.21; viability hit class no change; caspase hit class no change; inactive.
With knock-down of COMMD2 (COMM domain containing 2) #4 the results were viability relative to mock 0.86; caspase activity relative to mock 1.17; viability hit class no change; caspase hit class no change; inactive.

An excerpt from above, limited to “viability hit class”.
COMMD2 (COMM domain containing 2) #1	reduced viability
COMMD2 (COMM domain containing 2) #2	no change

Next entries follow.
Against B3GALT2 (beta-1,3-galactosyltransferase 2) #1, the values are viability relative to mock 0.87; caspase activity relative to mock 1.89; viability hit class no change; caspase hit class no change; inactive.
After knock-down of B3GALT2 (beta-1,3-galactosyltransferase 2) #2, the record shows viability relative to mock 0.86; caspase activity relative to mock 0.98; viability hit class no change; caspase hit class no change; inactive.
Knock-down of B3GALT2 (beta-1,3-galactosyltransferase 2) #3 gave: viability relative to mock 0.58; caspase activity relative to mock 3.17; viability hit class no change; caspase hit class caspase activation; active.
With knock-down of B3GALT2 (beta-1,3-galactosyltransferase 2) #4, the screen gave viability relative to mock 0.88; caspase activity relative to mock 1.48; viability hit class no change; caspase hit class no change; inactive.
With knock-down of FERMT2 (FERM domain containing kindlin 2) #1, the screen gave viability relative to mock 0.43; caspase activity relative to mock 5.58; viability hit class reduced viability; caspase hit class caspase activation; active.
FERMT2 (FERM domain containing kindlin 2) #2 gave viability relative to mock 0.9; caspase activity relative to mock 1.56; viability hit class no change; caspase hit class no change; inactive.
For FERMT2 (FERM domain containing kindlin 2) #3, the entry reads viability relative to mock 0.64; caspase activity relative to mock 1.2; viability hit class no change; caspase hit class no change; inactive.
Silencing of FERMT2 (FERM domain containing kindlin 2) #4 gave: viability relative to mock 0.8; caspase activity relative to mock 0.96; viability hit class no change; caspase hit class no change; inactive.
